Data reported in paper PMC5485919.
Results are given in words; binding and its absence hold for the method and conditions named. For some assays here: Binding seen in cells or lysates may run through a third protein. Some binding calls cover weakened binding; strength is not graded here. For some assays here: Sequences can lack the tags named with a protein.

The chains behind the UniProt entries cited, without tags or fusion partners. Residues count along the entry.
UniProt P02769, residues 25-607: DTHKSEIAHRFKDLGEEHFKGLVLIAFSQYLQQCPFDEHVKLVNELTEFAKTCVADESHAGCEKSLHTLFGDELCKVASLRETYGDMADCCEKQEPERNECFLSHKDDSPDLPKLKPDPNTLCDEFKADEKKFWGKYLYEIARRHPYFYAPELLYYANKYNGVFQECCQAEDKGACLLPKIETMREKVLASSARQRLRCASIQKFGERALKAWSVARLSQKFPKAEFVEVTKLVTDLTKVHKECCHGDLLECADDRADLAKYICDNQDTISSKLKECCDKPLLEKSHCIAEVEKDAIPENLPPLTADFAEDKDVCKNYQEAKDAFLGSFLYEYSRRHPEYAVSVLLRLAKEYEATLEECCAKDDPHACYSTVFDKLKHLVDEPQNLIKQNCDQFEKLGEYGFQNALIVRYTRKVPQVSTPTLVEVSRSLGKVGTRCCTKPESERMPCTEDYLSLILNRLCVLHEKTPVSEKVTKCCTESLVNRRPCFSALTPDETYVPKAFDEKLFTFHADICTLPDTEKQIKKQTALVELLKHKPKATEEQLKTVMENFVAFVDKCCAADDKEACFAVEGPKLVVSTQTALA

Tests used:
recombinant CD59 [1] = target: T1, recombinant CD59 (UniProt P13987); assay: cross-linking; 2 ug peptide incubated with 1 ug recombinant CD59 in 21 ul PBS overnight at 4°C; cross-linked with 2 mM DTSSP for 1 hour at room temperature; 15% SDS-PAGE and Western blots with anti-peptide F, anti-control peptide and anti-CD59 antibodies; both purified
T1 sequence: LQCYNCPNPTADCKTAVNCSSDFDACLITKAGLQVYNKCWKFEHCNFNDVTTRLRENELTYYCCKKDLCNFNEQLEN

[2] = target: T2, Myc-DDK-tagged human CD59 (human) (UniProt P13987); assay: co-IP; lysate of HEK293 cells transfected with Myc-DDK-CD59 incubated with 500 ug peptide overnight at 4°C; cross-linked with 2 mM DTSSP; immunoprecipitated with anti-DDK antibodies and protein A/G agarose; Western blots with anti-peptide F, anti-DDK and anti-CD59 antibodies; only the binder purified
T2 sequence: T1 sequence

[3] = target: T3, CD59 (endogenous, HUVEC lysate) (human (endogenous in HUVEC)) (UniProt P13987); assay: native gel or EMSA; 100 ug HUVEC whole-cell lysate incubated with 30 ug peptide F at 4°C for 2 hours; 10% native gel, Western blot with anti-peptide F antibodies; the band of bound peptide F (250 kD) cut from a duplicate gel, trypsin digested and analysed by mass spectrometry; only the binder purified
T3 sequence: T1 sequence

recombinant CD59 [4] = target: T1, recombinant CD59; assay: condition: 2 ug control peptide with 1 ug recombinant CD59 in 21 ul PBS; cross-linking; 2 ug peptide incubated with 1 ug recombinant CD59 in 21 ul PBS overnight at 4°C; cross-linked with 2 mM DTSSP for 1 hour at room temperature; 15% SDS-PAGE and Western blots with anti-peptide F, anti-control peptide and anti-CD59 antibodies; both purified
[5] = target: bovine serum albumin (bovine) (UniProt P02769); assay: phage display panning; negative control: the same panning protocol without target cells, in 20 ul NaHCO3 and bovine serum albumin on 96-well polystyrene plates; isolated phages sequenced; only the target purified

Binder: CFHENWPS [peptide F (synthetic, CFHENWPS)]
- binding (recombinant CD59 [1]): binds
- binding [2]: binds
- binding [3]: binds

Binder: CPLAYGTW [control peptide (CPLAYGTW)]
- binding (recombinant CD59 [4]): no binding

Binder: FHENWPS [peptide FHENWPS (peptide F) displayed on M13 phage]
- binding [5]: no binding
